Test results reported in the supplement of paper PMC12823440, “Inhibitors supercharge kinase turnover through native proteolytic circuits” (Nature, 2025).
Structures can show the parent of a compound that is named as a salt. The list shows a part of the results. Hit calls seldom repeat between salt and free forms of one compound.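 In K562 cells expressing nanoluciferase-fused kinases, luminescence was recorded at 4 h intervals between 2 and 18 h, normalized as percent of control with DMSO at 100% and a positive control at 0%. A significant (2 sigma) signal drop marks a time point as decreased. The authors' rule for a hit is not shown and takes in more than the number of time points.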

The chains behind the UniProt entries cited, without tags or fusion partners.
UniProt P29317, whole entry: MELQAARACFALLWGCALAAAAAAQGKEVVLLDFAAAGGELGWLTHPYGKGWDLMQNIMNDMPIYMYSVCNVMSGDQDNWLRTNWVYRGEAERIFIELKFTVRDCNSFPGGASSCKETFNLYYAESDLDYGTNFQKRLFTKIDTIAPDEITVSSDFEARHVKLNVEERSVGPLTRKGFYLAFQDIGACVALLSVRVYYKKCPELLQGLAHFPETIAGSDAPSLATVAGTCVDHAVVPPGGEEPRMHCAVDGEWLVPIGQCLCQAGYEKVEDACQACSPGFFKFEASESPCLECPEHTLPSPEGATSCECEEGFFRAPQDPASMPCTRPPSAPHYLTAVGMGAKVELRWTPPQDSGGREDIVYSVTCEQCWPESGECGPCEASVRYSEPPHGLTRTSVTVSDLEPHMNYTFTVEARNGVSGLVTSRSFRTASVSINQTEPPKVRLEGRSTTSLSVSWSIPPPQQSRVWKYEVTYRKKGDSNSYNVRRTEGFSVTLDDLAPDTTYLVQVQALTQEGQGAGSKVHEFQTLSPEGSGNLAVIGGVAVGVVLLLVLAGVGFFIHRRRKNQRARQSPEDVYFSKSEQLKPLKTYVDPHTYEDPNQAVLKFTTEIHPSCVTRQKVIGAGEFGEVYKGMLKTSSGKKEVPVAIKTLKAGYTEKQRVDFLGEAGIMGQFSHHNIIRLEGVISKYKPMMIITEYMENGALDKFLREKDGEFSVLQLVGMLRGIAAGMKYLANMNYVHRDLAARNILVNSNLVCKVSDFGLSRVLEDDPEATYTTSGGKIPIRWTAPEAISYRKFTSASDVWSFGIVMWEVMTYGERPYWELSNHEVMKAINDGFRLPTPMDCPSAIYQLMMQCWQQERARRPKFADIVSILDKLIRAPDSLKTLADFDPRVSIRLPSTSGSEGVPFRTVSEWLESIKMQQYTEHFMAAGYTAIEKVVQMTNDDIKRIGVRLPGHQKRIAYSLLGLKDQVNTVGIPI
UniProt P21860, whole entry: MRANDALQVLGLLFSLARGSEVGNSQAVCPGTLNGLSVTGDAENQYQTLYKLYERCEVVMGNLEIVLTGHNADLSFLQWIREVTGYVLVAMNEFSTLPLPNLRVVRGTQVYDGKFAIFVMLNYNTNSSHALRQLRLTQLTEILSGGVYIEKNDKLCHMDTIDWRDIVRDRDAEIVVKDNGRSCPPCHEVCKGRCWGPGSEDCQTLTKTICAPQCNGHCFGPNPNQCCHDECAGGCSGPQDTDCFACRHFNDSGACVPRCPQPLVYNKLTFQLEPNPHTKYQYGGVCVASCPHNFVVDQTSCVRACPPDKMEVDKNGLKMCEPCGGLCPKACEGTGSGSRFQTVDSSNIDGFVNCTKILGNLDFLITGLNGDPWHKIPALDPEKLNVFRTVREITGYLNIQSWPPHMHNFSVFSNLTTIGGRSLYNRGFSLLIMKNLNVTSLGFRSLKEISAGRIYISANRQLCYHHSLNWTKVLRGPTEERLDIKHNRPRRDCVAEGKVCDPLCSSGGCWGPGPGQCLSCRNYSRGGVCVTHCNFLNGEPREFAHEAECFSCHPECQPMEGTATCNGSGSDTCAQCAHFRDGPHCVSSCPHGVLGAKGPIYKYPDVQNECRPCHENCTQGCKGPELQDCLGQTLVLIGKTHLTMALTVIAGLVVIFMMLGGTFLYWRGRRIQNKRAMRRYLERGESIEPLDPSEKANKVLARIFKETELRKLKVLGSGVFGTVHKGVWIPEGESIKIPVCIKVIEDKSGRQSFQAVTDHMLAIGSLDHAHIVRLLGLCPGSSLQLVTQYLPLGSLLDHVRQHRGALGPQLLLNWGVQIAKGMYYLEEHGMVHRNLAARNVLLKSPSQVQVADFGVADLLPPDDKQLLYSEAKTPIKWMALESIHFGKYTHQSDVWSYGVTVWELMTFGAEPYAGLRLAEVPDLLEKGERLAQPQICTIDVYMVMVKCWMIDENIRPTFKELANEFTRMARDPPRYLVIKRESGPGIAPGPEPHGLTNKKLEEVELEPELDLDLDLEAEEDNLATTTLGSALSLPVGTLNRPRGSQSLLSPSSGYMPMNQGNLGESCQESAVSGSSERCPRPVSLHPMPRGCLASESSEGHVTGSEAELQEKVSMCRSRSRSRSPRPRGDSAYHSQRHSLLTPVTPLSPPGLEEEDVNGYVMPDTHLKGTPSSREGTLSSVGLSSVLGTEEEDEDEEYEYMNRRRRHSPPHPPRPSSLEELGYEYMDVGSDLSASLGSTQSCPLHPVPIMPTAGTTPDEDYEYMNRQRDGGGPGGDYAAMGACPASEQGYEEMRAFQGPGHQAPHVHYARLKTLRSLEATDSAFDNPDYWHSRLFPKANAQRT
UniProt Q15303, whole entry R711C: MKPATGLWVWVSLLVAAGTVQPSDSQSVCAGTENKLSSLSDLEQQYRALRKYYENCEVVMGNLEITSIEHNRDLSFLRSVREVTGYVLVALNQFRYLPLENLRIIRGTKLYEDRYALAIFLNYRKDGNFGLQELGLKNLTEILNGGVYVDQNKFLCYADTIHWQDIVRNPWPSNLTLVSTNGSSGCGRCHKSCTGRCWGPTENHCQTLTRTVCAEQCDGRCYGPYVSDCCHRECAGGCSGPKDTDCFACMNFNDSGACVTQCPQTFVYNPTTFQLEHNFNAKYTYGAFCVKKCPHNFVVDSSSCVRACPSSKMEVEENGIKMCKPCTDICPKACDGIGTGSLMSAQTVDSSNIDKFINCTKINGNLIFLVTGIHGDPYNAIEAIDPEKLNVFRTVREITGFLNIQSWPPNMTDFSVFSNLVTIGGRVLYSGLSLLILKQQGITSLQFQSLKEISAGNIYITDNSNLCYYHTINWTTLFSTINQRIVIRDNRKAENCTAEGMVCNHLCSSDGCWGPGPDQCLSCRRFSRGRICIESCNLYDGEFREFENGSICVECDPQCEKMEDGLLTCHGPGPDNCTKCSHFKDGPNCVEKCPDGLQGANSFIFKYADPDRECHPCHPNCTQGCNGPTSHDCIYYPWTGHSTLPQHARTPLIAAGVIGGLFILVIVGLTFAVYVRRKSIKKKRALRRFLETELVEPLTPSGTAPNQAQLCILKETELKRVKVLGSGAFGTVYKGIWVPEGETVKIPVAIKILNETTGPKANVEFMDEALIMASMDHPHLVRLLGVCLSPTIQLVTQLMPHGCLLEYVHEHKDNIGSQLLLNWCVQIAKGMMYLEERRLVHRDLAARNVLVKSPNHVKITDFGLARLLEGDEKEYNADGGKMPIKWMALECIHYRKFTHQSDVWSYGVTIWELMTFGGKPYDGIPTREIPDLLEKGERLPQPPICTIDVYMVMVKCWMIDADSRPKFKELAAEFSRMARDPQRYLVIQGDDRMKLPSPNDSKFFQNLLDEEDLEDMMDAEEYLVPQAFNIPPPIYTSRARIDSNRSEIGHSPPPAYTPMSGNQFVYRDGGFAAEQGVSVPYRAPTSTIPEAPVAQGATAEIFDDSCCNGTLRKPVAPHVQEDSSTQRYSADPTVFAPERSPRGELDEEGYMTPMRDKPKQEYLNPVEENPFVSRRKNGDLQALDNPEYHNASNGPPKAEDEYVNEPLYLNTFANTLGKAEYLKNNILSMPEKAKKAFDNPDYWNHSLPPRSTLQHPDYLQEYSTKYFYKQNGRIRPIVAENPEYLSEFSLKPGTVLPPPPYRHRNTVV

How the values were obtained:
Assay in all cases: kinase-Nluc reporter destabilization hit call (1 = scored as downregulated) (binary); higher = compound decreases kinase abundance
Conditions in all cases: K562; 2-18 h
EGFR = EGFR (UniProt P00533)
EGFR_G719S = EGFR_G719S (UniProt P00533)
EGFR_G719S_T790M = EGFR_G719S_T790M (UniProt P00533)
EGFR_L718V = EGFR_L718V (UniProt P00533)
EGFR_L858R = EGFR_L858R (UniProt P00533)
EGFR_L861Q = EGFR_L861Q (UniProt P00533)
EGFR_T790M = EGFR_T790M (UniProt P00533)
EPHA2 = EPHA2 (UniProt P29317)
ERBB3 = ERBB3 (UniProt P21860)
[1] = molecular target: ERBB4_R711C (clone: ERBB4_mut) (UniProt Q15303)

Measured: kinase-Nluc reporter destabilization hit call

O=C(NOCC(O)CO)c1cc(Br)c(F)c(F)c1Nc1ccc(I)cc1F (stereo not given) (2.5 µM)
inactive: EGFR 0 | EGFR_G719S 0 | EGFR_G719S_T790M 0 | EGFR_L718V 0 | EGFR_L858R 0 | EGFR_L861Q 0 | EGFR_T790M 0 | EPHA2 = 0 | ERBB3 = 0 | [1] 0

C=CC(=O)Nc1cccc(Nc2nc(Nc3ccc(N4CCN(C(C)=O)CC4)cc3OC)ncc2C(F)(F)F)c1 [Rociletinib hydrobromide] (10 µM)
inactive: EGFR 0 | EGFR_G719S 0 | EGFR_G719S_T790M 0 | EGFR_L718V 0 | EGFR_L858R 0 | EGFR_L861Q 0 | EGFR_T790M 0 | EPHA2 = 0 | ERBB3 = 0 | [1] 0

Oc1cc2c(cc1O)C(Cc1cccc3ccccc13)NCC2 (stereo not given) (10 µM)
inactive: EGFR 0 | EGFR_G719S 0 | EGFR_G719S_T790M 0 | EGFR_L718V 0 | EGFR_L858R 0 | EGFR_L861Q 0 | EGFR_T790M 0 | EPHA2 = 0 | ERBB3 = 0 | [1] 0

N#CCC1CCN(c2nc(Nc3ccc(N4CCC(O)CC4)cc3)c3c(=O)[nH]ncc3n2)CC1 [Gusacitinib] (10 µM)
inactive: EGFR 0 | EGFR_G719S 0 | EGFR_G719S_T790M 0 | EGFR_L718V 0 | EGFR_L858R 0 | EGFR_L861Q 0 | EGFR_T790M 0 | EPHA2 = 0 | ERBB3 = 0 | [1] 0

CC(=O)NC1CC(n2cnc(NC(=O)Cc3ccc4ccccc4c3)c2)C1 (stereo not given) (10 µM)
inactive: EGFR 0 | EGFR_G719S 0 | EGFR_G719S_T790M 0 | EGFR_L718V 0 | EGFR_L858R 0 | EGFR_L861Q 0 | EGFR_T790M 0 | EPHA2 = 0 | ERBB3 = 0 | [1] 0

Nc1nc(F)nc2c1ncn2[C@@H]1O[C@H](CO)[C@@H](O)[C@@H]1O [Fludarabine] (10 µM)
inactive: EGFR 0 | EGFR_G719S 0 | EGFR_G719S_T790M 0 | EGFR_L718V 0 | EGFR_L858R 0 | EGFR_L861Q 0 | EGFR_T790M 0 | EPHA2 = 0 | ERBB3 = 0 | [1] 0

O=c1[nH]c(=O)n([C@@H]2O[C@H](CO)[C@@H](O)[C@@H]2O)cc1/C=C/Br [Sorivudine] (10 µM)
inactive: EGFR 0 | EGFR_G719S 0 | EGFR_G719S_T790M 0 | EGFR_L718V 0 | EGFR_L858R 0 | EGFR_L861Q 0 | EGFR_T790M 0 | EPHA2 = 0 | ERBB3 = 0 | [1] 0

CC(C)(C)c1nc(-c2cccc(NS(=O)(=O)c3c(F)cccc3F)c2F)c(-c2ccnc(N)n2)s1 [Dabrafenib] (2.5 µM)
inactive: EGFR 0 | EGFR_G719S 0 | EGFR_G719S_T790M 0 | EGFR_L718V 0 | EGFR_L858R 0 | EGFR_L861Q 0 | EGFR_T790M 0 | EPHA2 = 0 | ERBB3 = 0 | [1] 0

Cn1nccc1Nc1nccc(-c2ccn([C@H](CO)c3ccc(Cl)c(F)c3)c(=O)c2)n1 [Ravoxertinib hydrochloride] (10 µM)
inactive: EGFR 0 | EGFR_G719S 0 | EGFR_G719S_T790M 0 | EGFR_L718V 0 | EGFR_L858R 0 | EGFR_L861Q 0 | EGFR_T790M 0 | EPHA2 = 0 | ERBB3 = 0 | [1] 0

Cn1cnc2c(F)c(Nc3ccc(Br)cc3Cl)c(C(=O)NOCCO)cc21 [Selumetinib] (10 µM)
inactive: EGFR 0 | EGFR_G719S 0 | EGFR_G719S_T790M 0 | EGFR_L718V 0 | EGFR_L858R 0 | EGFR_L861Q 0 | EGFR_T790M 0 | EPHA2 = 0 | ERBB3 = 0 | [1] 0

CCCS(=O)(=O)Nc1ccc(F)c(C(=O)c2c[nH]c3ncc(-c4ccc(Cl)cc4)cc23)c1F [Vemurafenib] (10 µM)
inactive: EGFR 0 | EGFR_G719S 0 | EGFR_G719S_T790M 0 | EGFR_L718V 0 | EGFR_L858R 0 | EGFR_L861Q 0 | EGFR_T790M 0 | EPHA2 = 0 | ERBB3 = 0 | [1] 0

CC(=O)c1c(C)cc2cccc(O)c2c1O [Nepodin] (10 µM)
inactive: EGFR 0 | EGFR_G719S 0 | EGFR_G719S_T790M 0 | EGFR_L718V 0 | EGFR_L858R 0 | EGFR_L861Q 0 | EGFR_T790M 0 | EPHA2 = 0 | ERBB3 = 0 | [1] 0

Cc1ccccc1-n1c([C@H](C)Nc2nc(N)nc3nc[nH]c23)nc2cccc(C)c2c1=O [CAL-130 (Hydrochloride)] (10 µM)
inactive: EGFR 0 | EGFR_G719S 0 | EGFR_G719S_T790M 0 | EGFR_L718V 0 | EGFR_L858R 0 | EGFR_L861Q 0 | EGFR_T790M 0 | EPHA2 = 0 | ERBB3 = 0 | [1] 0

OCCn1cc(-c2ccc3c(c2)CC/C3=N\O)c(-c2ccncc2)n1 (10 µM)
inactive: EGFR 0 | EGFR_G719S 0 | EGFR_G719S_T790M 0 | EGFR_L718V 0 | EGFR_L858R 0 | EGFR_L861Q 0 | EGFR_T790M 0 | EPHA2 = 0 | ERBB3 = 0 | [1] 0

CN(C)CCCOc1ccc(-c2ccc3ncc4c(c3c2)n(C2CCOCC2)c(=O)n4C)cn1 (2 µM)
inactive: EGFR 0 | EGFR_G719S 0 | EGFR_G719S_T790M 0 | EGFR_L718V 0 | EGFR_L858R 0 | EGFR_L861Q 0 | EGFR_T790M 0 | EPHA2 = 0 | ERBB3 = 0 | [1] 0

Nc1ncnc2c1c(-c1cccc(OCc3ccccc3)c1)cn2C1CC(CN2CCC2)C1 (stereo not given) (2.5 µM)
inactive: EGFR 0 | EGFR_G719S 0 | EGFR_G719S_T790M 0 | EGFR_L718V 0 | EGFR_L858R 0 | EGFR_L861Q 0 | EGFR_T790M 0 | EPHA2 = 0 | ERBB3 = 0 | [1] 0

NCCNS(=O)(=O)c1cccc2c(Cl)cccc12 [A-3 (hydrochloride)] (10 µM)
inactive: EGFR 0 | EGFR_G719S 0 | EGFR_G719S_T790M 0 | EGFR_L718V 0 | EGFR_L858R 0 | EGFR_L861Q 0 | EGFR_T790M 0 | EPHA2 = 0 | ERBB3 = 0 | [1] 0

Reprinted at random: two records from the list
Nc1ncnc2c1c(-c1cccc(OCc3ccccc3)c1)cn2C1CC(CN2CCC2)C1 (stereo not given) (2.5 µM)
inactive: EGFR 0 | EGFR_G719S 0 | EGFR_G719S_T790M 0 | EGFR_L718V 0 | EGFR_L858R 0 | EGFR_L861Q 0 | EGFR_T790M 0 | EPHA2 = 0 | ERBB3 = 0 | [1] 0

NCCNS(=O)(=O)c1cccc2c(Cl)cccc12 [A-3 (hydrochloride)] (10 µM)
inactive: EGFR 0 | EGFR_G719S 0 | EGFR_G719S_T790M 0 | EGFR_L718V 0 | EGFR_L858R 0 | EGFR_L861Q 0 | EGFR_T790M 0 | EPHA2 = 0 | ERBB3 = 0 | [1] 0

Additional entries follow:

Cn1cnc2c(F)c(Nc3ccc(Br)cc3Cl)c(C(=O)NOCCO)cc21 [Selumetinib (sulfate)] (10 µM)
inactive: EGFR 0 | EGFR_G719S 0 | EGFR_G719S_T790M 0 | EGFR_L718V 0 | EGFR_L858R 0 | EGFR_L861Q 0 | EGFR_T790M 0 | EPHA2 = 0 | ERBB3 = 0 | [1] 0

CN(C)CCSSCCNC(=O)C1CCN(C(=O)CSc2ccc(Cl)cc2)CC1 (10 µM)
inactive: EGFR 0 | EGFR_G719S 0 | EGFR_G719S_T790M 0 | EGFR_L718V 0 | EGFR_L858R 0 | EGFR_L861Q 0 | EGFR_T790M 0 | EPHA2 = 0 | ERBB3 = 0 | [1] 0

Cc1ccc2nc(NCCN)c3ncc(C)n3c2c1 (2.5 µM)
inactive: EGFR 0 | EGFR_G719S 0 | EGFR_G719S_T790M 0 | EGFR_L718V 0 | EGFR_L858R 0 | EGFR_L861Q 0 | EGFR_T790M 0 | EPHA2 = 0 | ERBB3 = 0 | [1] 0

CN1CCC(c2cc(-c3ccncc3)c(-c3ccc(F)cc3)[nH]2)CC1 (10 µM)
inactive: EGFR 0 | EGFR_G719S 0 | EGFR_G719S_T790M 0 | EGFR_L718V 0 | EGFR_L858R 0 | EGFR_L861Q 0 | EGFR_T790M 0 | EPHA2 = 0 | ERBB3 = 0 | [1] 0

O=C1Nc2ccc(C(=O)c3ccco3)cc2C1=Cc1cc(Cl)c(O)c(Cl)c1 (2.5 µM)
inactive: EGFR 0 | EGFR_G719S 0 | EGFR_G719S_T790M 0 | EGFR_L718V 0 | EGFR_L858R 0 | EGFR_L861Q 0 | EGFR_T790M 0 | EPHA2 = 0 | ERBB3 = 0 | [1] 0

COc1ccc(Cl)c(Nc2nc3ccccc3nc2NS(=O)(=O)c2cccc(NC(=O)C(C)(C)N)c2)c1 [Pilaralisib] (10 µM)
inactive: EGFR 0 | EGFR_G719S 0 | EGFR_G719S_T790M 0 | EGFR_L718V 0 | EGFR_L858R 0 | EGFR_L861Q 0 | EGFR_T790M 0 | EPHA2 = 0 | ERBB3 = 0 | [1] 0

CC[C@@H](Oc1nc(Oc2cc(C)cc(-c3cccc(CN)c3)c2)c(F)cc1F)C(=O)O (10 µM)
inactive: EGFR 0 | EGFR_G719S 0 | EGFR_G719S_T790M 0 | EGFR_L718V 0 | EGFR_L858R 0 | EGFR_L861Q 0 | EGFR_T790M 0 | EPHA2 = 0 | ERBB3 = 0 | [1] 0

CCc1c(C(=O)NNC(=O)C(O)c2cc(F)cc(F)c2)ccc(O)c1C (stereo not given) (10 µM)
inactive: EGFR 0 | EGFR_G719S 0 | EGFR_G719S_T790M 0 | EGFR_L718V 0 | EGFR_L858R 0 | EGFR_L861Q 0 | EGFR_T790M 0 | EPHA2 = 0 | ERBB3 = 0 | [1] 0

Cc1ccc2cc(-c3c(C)ccc(C(=O)c4c(-c5ccccc5)n(C)n(-c5ccccc5)c4=O)c3N)ccc2n1 (2.5 µM)
inactive: EGFR 0 | EGFR_G719S 0 | EGFR_G719S_T790M 0 | EGFR_L718V 0 | EGFR_L858R 0 | EGFR_L861Q 0 | EGFR_T790M 0 | EPHA2 = 0 | ERBB3 = 0 | [1] 0

CC#CC(=O)N1CC[C@@H](n2c(=O)n(-c3ccc(Oc4ccccc4)cc3)c3c(N)ncnc32)C1 [Tirabrutinib (hydrochloride)] (10 µM)
inactive: EGFR 0 | EGFR_G719S 0 | EGFR_G719S_T790M 0 | EGFR_L718V 0 | EGFR_L858R 0 | EGFR_L861Q 0 | EGFR_T790M 0 | EPHA2 = 0 | ERBB3 = 0 | [1] 0

S=C(SSC(=S)N1CCOCC1)N1CCOCC1 (10 µM)
inactive: EGFR 0 | EGFR_G719S 0 | EGFR_G719S_T790M 0 | EGFR_L718V 0 | EGFR_L858R 0 | EGFR_L861Q 0 | EGFR_T790M 0 | EPHA2 = 0 | ERBB3 = 0 | [1] 0

CCS(=O)(=O)Nc1ccc2[nH]c(O)c(C(=Nc3ccc(CN4CCCCC4)cc3)c3ccccc3)c2c1 [Hesperadin] (2.5 µM)
inactive: EGFR 0 | EGFR_G719S 0 | EGFR_G719S_T790M 0 | EGFR_L718V 0 | EGFR_L858R 0 | EGFR_L861Q 0 | EGFR_T790M 0 | EPHA2 = 0 | ERBB3 = 0 | [1] 0
